Reference: patent publication US20240299359A1, “PHARMACEUTICAL COMPOSITION FOR ANIMALS CONTAINING 5-HYDROXY-METHYLIMIDAZOLIDINE-2,4-DIONE COMPOUND AS ACTIVE INGREDIENT” (KYONGBO PHARM. CO., LTD., priority 2021, published 2024)
Where “and” joins values, the source holds several entries; their conditions need not be identical. Equal values may be shown once. Further values from the same series stand in other lists.

Assay: 13-week repeated oral toxicity: weight measurement
Assay type: in vivo, beagle
Procedure: During the 13-week test period starting from the day before administration, the weight was measured a total of 15 times before administration (pre), before administration on the day of administration, and every week over the 13-week test period after the first administration at a predetermined time (remaining feed measurement time) before administration of the test substance (on every Tuesday during the test period).

CN1C(=O)NC(=O)C1O (stereo not drawn) [KBP-001, 5-hydroxy-1-methylimidazolidine-2,4-dione]
Weight (500 mg/kg repeated oral (G3), female, week 0, individual animals): 9.9 and 9.8 and 8.8
Weight (500 mg/kg repeated oral (G3), female, week 1, individual animals): 9.9 (2×) and 9.0
Weight (500 mg/kg repeated oral (G3), female, week 2, individual animals): 9.8 (2×) and 8.8
Weight (500 mg/kg repeated oral (G3), female, week 3, individual animals): 9.9 and 10.0 and 9.0
Weight (500 mg/kg repeated oral (G3), female, week 4, individual animals): 9.9 and 10.2 and 9.2
Weight (500 mg/kg repeated oral (G3), female, week 5, individual animals): 9.9 and 10.3 and 9.3
Weight (500 mg/kg repeated oral (G3), female, week 6, individual animals): 9.8 and 10.3 and 9.4
Weight (500 mg/kg repeated oral (G3), female, week 7, individual animals): 9.8 and 10.1 and 9.4
Weight (500 mg/kg repeated oral (G3), female, week 8, individual animals): 9.7 and 10.4 and 9.3
Weight (500 mg/kg repeated oral (G3), female, week 9, individual animals): 9.6 and 10.2 and 9.5
Weight (500 mg/kg repeated oral (G3), female, week 10, individual animals): 9.6 and 10.4 and 9.5
Weight (500 mg/kg repeated oral (G3), female, week 11, individual animals): 9.7 and 10.4 and 9.6
Weight (500 mg/kg repeated oral (G3), female, week 12, individual animals): 9.7 (2×) and 10.4
Weight (500 mg/kg repeated oral (G3), female, week 13, individual animals): 9.9 and 10.4 and 9.7
Weight (500 mg/kg repeated oral (G3), female, week pre, individual animals): 9.9 and 9.8 and 8.8
Weight (500 mg/kg repeated oral (G3), male, week 0, individual animals): 9.1 and 10.5
Weight (500 mg/kg repeated oral (G3), male, week 1, individual animals): 10.1 and 9.3 and 10.6
Weight (500 mg/kg repeated oral (G3), male, week 2, individual animals): 9.9 and 9.3 and 10.5
Weight (500 mg/kg repeated oral (G3), male, week 3, individual animals): 9.8 and 9.3 and 10.5
Weight (500 mg/kg repeated oral (G3), male, week 4, individual animals): 10.0 and 9.4 and 10.7
Weight (500 mg/kg repeated oral (G3), male, week 5, individual animals): 10.2 and 9.5 and 10.7
Weight (500 mg/kg repeated oral (G3), male, week 6, individual animals): 9.6 and 10.6
Weight (500 mg/kg repeated oral (G3), male, week 7, individual animals): 9.6 and 10.6
Weight (500 mg/kg repeated oral (G3), male, week 8, individual animals): 9.6 and 10.4
Weight (500 mg/kg repeated oral (G3), male, week 9, individual animals): 9.5 and 10.5
Weight (500 mg/kg repeated oral (G3), male, week 10, individual animals): 9.6 and 10.5
Weight (500 mg/kg repeated oral (G3), male, week 11, individual animals): 9.6 and 10.4
Weight (500 mg/kg repeated oral (G3), male, week 12, individual animals): 9.7 and 10.5
Weight (500 mg/kg repeated oral (G3), male, week 13, individual animals): 9.7 and 10.6
Weight (500 mg/kg repeated oral (G3), male, week pre, individual animals): 9.4 and 10.6
Weight (1,000 mg/kg repeated oral (G4), female, week 0, individual animals): 9.9 and 9.5 and 8.9
Weight (1,000 mg/kg repeated oral (G4), female, week 1, individual animals): 9.4 and 9.7 and 9.2
Weight (1,000 mg/kg repeated oral (G4), female, week 2, individual animals): 9.1 and 9.8 and 9.0
Weight (1,000 mg/kg repeated oral (G4), female, week 3, individual animals): 9.1 (2×) and 9.9
Weight (1,000 mg/kg repeated oral (G4), female, week 4, individual animals): 9.4 and 10.1 and 9.2
Weight (1,000 mg/kg repeated oral (G4), female, week 5, individual animals): 9.4 and 10.0 and 9.2
Weight (1,000 mg/kg repeated oral (G4), female, week 6, individual animals): 9.3 and 9.9 and 9.0
Weight (1,000 mg/kg repeated oral (G4), female, week 7, individual animals): 9.3 and 9.9 and 9.1
Weight (1,000 mg/kg repeated oral (G4), female, week 8, individual animals): 9.3 and 10.0 and 9.2
Weight (1,000 mg/kg repeated oral (G4), female, week 9, individual animals): 9.5 and 10.2 and 9.4
Weight (1,000 mg/kg repeated oral (G4), female, week 10, individual animals): 9.6 and 10.3 and 9.4
Weight (1,000 mg/kg repeated oral (G4), female, week 11, individual animals): 9.6 and 10.3 and 9.5
Weight (1,000 mg/kg repeated oral (G4), female, week 12, individual animals): 9.6 and 10.3 and 9.5
Weight (1,000 mg/kg repeated oral (G4), female, week 13, individual animals): 9.5 (2×) and 10.3
Weight (1,000 mg/kg repeated oral (G4), female, week pre, individual animals): 9.9 and 9.5 and 8.9
Weight (1,000 mg/kg repeated oral (G4), male, week 0, individual animals): 11.3 and 10.0 and 9.3
Weight (1,000 mg/kg repeated oral (G4), male, week 1, individual animals): 11.1 and 10.1 and 9.4
Weight (1,000 mg/kg repeated oral (G4), male, week 2, individual animals): 11.3 and 9.9 and 9.1
Weight (1,000 mg/kg repeated oral (G4), male, week 3, individual animals): 11.1 and 10.0 and 9.0
Weight (1,000 mg/kg repeated oral (G4), male, week 4, individual animals): 11.4 and 10.1 and 9.2
Weight (1,000 mg/kg repeated oral (G4), male, week 5, individual animals): 11.4 and 10.2 and 9.3
Weight (1,000 mg/kg repeated oral (G4), male, week 6, individual animals): 11.0 and 9.9 and 9.2
Weight (1,000 mg/kg repeated oral (G4), male, week 7, individual animals): 11.2 and 10.0 and 9.2
Weight (1,000 mg/kg repeated oral (G4), male, week 8, individual animals): 11.1 and 10.0 and 9.2
Weight (1,000 mg/kg repeated oral (G4), male, week 9, individual animals): 11.0 and 10.2 and 9.4
Weight (1,000 mg/kg repeated oral (G4), male, week 10, individual animals): 11.1 and 10.2 and 9.4
Weight (1,000 mg/kg repeated oral (G4), male, week 11, individual animals): 11.2 and 10.1 and 9.3
Weight (1,000 mg/kg repeated oral (G4), male, week 12, individual animals): 11.0 and 10.3 and 9.3
Weight (1,000 mg/kg repeated oral (G4), male, week 13, individual animals): 11.1 and 10.3 and 9.2
Weight (1,000 mg/kg repeated oral (G4), male, week pre, individual animals): 11.3 and 10.0 and 9.3
